The text below walks through data of doi:10.1101/2023.09.18.558310.

Protein sequences, listed by entry. Tags and fused reporters are not part of them. Lines headed by an entry give the natural chain unless they say otherwise; changes in a name come on top.
UniProt Q9CAJ0: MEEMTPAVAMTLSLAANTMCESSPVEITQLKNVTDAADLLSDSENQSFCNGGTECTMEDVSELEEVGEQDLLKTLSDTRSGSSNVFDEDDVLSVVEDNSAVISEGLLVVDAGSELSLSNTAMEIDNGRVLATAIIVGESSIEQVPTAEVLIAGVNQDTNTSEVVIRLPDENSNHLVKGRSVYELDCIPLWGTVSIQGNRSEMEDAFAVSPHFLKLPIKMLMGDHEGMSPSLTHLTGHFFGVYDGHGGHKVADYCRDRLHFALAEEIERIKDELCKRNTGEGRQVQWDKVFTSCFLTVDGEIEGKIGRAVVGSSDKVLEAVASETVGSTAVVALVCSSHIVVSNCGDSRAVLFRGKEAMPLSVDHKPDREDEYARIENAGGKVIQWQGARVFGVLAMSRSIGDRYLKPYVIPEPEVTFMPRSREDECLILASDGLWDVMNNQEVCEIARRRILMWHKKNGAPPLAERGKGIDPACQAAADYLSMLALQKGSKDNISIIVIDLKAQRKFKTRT

The target of experiment [1] is HAB1-BD (Arabidopsis) (UniProt Q9CAJ0). As to the kind of experiment: two-hybrid.
In experiment [2] the target is YFPN-HAB1 (Arabidopsis) (UniProt Q9CAJ0). As to the kind of experiment: split reporter.
Experiment [3] has as its target HAB1-mGFP5 (Arabidopsis) (UniProt Q9CAJ0). As to the kind of experiment: co-IP.

These are yes or no findings as the source states them, for the method shown. Binding can be weak; no strength is given. For part of these data: Where a sequence is shown, tags or fusion partners need not be part of it. For part of these data: Binding seen in cells or lysates may run through a third protein.

B1: CAR1-AD (protein, UniProt Q9FHP6 1-168)
chain: MENLVGLLRIHVKRGVNLAIRDISSSDPYIVVHCGKQKLKTRVVKHSVNPEWNDDLTLSVTDPNLPIKLTVYDYDLLSADDKMGEAEFHIGPFIEAIKFAHQLGPGLPNGTIIKKIEPSRKNCLSESSHIVLNQGKIVQNMFLRLQHVECGEVELQLEWIDVPGSRGI
As to B1, the binding entry in experiment [1] is “binds”.

B2: CAR1-YFPC (protein, UniProt Q9FHP6 1-168)
chain: B1 chain
For the molecule B2, in experiment [2], the binding entry is reported as “binds”.

B3: CAR1-mCherry (protein, UniProt Q9FHP6 1-168)
chain: B1 chain
Turning to B3, the binding result in experiment [3] is on record as “binds”.
